In publication doi:10.1101/2020.02.20.958140 one finds binding data, which are given here for two substances.

Sequences of proteins named here, by UniProt entry; tags and fusion partners are left off.
UniProt Q68FD5: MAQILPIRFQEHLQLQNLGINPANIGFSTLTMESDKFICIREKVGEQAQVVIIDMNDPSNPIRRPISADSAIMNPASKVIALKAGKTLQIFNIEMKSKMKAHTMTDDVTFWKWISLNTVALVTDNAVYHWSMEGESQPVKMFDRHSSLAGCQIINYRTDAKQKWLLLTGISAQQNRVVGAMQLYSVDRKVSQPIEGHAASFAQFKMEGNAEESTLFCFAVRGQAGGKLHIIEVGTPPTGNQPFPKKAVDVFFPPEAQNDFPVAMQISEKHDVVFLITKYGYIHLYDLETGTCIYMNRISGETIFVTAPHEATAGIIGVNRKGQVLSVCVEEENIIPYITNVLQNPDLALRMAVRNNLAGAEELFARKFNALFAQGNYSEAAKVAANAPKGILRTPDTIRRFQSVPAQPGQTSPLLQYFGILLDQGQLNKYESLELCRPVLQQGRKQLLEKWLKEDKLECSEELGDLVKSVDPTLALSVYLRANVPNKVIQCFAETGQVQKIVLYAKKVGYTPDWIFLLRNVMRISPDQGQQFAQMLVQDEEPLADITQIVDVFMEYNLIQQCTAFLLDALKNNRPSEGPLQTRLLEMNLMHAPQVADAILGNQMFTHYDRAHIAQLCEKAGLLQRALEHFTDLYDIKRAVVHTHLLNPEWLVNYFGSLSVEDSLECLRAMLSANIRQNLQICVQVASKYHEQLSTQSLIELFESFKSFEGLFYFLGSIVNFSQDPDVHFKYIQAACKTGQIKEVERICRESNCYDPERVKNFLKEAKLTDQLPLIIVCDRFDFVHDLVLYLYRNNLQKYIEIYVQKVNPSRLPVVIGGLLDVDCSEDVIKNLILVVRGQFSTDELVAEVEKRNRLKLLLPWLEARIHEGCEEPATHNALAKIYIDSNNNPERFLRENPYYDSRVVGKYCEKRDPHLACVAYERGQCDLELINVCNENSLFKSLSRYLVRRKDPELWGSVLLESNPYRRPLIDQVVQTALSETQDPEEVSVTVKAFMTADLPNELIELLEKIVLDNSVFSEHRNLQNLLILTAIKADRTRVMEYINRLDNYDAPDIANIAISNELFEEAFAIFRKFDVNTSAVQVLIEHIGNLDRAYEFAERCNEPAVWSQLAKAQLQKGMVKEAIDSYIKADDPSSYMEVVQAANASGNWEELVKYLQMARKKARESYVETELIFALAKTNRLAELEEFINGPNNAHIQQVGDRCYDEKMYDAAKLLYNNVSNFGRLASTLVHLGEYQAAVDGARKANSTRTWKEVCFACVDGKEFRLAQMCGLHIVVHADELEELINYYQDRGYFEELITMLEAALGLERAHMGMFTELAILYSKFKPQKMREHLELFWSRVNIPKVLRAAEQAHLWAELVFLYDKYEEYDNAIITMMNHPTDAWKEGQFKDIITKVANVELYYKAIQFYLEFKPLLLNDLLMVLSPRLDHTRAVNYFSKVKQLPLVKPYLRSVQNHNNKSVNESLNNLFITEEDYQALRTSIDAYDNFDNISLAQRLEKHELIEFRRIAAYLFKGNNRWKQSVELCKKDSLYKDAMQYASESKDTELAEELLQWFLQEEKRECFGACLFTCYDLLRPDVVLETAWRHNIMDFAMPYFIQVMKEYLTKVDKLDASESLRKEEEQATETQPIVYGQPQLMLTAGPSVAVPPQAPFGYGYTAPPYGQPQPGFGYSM
UniProt Q64331: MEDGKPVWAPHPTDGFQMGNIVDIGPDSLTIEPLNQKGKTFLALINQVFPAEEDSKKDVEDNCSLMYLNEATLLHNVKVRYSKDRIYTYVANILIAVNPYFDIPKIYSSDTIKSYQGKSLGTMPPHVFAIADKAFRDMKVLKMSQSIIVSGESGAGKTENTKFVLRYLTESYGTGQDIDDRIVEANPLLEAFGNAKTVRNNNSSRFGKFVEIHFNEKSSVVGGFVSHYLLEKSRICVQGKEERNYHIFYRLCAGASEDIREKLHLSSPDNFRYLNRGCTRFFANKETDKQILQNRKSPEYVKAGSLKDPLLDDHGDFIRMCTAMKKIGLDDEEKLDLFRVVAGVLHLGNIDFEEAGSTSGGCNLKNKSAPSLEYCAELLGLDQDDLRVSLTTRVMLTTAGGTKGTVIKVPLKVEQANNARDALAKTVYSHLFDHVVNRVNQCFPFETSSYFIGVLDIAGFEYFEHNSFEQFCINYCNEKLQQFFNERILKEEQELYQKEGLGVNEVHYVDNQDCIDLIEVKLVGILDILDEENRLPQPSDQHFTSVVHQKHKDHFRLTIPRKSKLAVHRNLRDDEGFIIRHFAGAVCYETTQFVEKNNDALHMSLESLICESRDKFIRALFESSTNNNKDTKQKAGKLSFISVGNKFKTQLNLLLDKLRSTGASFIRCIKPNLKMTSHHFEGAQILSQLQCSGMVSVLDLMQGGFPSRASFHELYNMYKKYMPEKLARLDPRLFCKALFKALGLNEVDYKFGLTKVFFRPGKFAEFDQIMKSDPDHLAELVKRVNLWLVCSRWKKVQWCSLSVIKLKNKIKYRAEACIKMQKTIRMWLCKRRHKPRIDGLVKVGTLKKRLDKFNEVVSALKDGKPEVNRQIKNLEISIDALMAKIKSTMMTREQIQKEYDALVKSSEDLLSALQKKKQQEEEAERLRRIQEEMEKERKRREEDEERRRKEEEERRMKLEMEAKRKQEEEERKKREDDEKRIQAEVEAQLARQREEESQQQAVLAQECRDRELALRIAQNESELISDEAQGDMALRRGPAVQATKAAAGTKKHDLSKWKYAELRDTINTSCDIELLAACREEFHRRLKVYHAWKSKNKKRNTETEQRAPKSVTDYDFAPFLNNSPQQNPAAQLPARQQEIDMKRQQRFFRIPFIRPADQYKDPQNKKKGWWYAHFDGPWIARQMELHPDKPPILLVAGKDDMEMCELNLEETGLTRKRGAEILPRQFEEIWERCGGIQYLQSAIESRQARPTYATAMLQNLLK
UniProt Q61879: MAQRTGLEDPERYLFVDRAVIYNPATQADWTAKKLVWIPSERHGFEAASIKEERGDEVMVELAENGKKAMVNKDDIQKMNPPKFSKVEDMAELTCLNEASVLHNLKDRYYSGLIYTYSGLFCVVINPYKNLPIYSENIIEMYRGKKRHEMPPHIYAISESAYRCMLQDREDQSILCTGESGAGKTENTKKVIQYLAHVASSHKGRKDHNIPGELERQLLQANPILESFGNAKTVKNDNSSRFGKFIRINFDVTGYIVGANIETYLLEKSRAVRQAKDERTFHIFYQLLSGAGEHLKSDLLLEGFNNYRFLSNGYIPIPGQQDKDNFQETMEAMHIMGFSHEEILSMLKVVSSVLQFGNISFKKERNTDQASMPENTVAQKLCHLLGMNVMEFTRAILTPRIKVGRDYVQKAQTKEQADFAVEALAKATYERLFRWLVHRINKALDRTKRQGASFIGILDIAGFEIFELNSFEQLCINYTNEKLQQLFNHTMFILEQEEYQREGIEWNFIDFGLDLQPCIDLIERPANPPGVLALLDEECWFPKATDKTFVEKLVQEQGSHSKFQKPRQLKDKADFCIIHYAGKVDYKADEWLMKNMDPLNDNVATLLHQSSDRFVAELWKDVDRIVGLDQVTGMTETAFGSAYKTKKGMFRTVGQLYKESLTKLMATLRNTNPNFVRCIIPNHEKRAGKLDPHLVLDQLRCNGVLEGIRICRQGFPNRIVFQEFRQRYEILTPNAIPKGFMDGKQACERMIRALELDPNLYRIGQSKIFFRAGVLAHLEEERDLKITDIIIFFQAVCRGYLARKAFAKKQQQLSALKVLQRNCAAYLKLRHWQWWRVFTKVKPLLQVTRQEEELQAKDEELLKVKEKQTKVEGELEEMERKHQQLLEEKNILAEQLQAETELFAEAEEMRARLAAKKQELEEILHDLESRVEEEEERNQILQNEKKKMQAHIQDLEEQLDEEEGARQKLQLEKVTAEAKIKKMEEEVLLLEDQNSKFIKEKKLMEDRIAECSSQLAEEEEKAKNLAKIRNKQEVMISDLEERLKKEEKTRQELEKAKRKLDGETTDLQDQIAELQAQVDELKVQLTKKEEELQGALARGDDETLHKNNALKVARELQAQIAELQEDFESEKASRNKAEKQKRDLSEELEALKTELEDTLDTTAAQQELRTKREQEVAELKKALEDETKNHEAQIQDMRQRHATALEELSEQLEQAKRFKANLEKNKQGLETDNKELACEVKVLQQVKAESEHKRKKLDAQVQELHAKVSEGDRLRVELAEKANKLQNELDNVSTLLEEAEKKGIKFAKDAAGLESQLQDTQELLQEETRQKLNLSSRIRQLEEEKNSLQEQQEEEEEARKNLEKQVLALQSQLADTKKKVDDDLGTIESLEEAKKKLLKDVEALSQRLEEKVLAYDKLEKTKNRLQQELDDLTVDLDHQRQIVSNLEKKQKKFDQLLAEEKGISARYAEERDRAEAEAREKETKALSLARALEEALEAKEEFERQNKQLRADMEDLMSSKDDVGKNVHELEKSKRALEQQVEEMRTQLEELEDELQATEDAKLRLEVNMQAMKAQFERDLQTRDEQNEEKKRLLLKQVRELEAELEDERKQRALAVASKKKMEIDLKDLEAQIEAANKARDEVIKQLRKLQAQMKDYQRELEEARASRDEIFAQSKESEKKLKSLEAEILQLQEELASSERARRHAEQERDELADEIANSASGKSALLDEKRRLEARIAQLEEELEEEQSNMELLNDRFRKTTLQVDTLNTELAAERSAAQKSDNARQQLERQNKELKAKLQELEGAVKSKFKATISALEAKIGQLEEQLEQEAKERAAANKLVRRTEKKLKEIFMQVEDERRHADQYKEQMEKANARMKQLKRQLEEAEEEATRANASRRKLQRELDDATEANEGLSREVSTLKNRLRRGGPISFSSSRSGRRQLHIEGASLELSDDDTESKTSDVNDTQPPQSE

Results are given in words; binding and its absence hold for the method and conditions named. In cells and extracts the contact can be indirect. These calls come from enrichment with a bait or labelling near it, and not all partners need be listed.

This test concerns the target clathrin (immunoprecipitated with an anti-clathrin heavy chain antibody) (mouse (endogenous in sciatic nerve)) (UniProt Q68FD5). Kind of test: affinity purification with mass spectrometry.

Take myosin-6 (from UniProt Q64331 1-1262): the binding result was “binds”.

On to myosin-10 (from UniProt Q61879 1-1976), for which the binding entry is “binds”.
